Results from PubChem BioAssay (NCATS).
Inconclusive means that the source gave no clear call. Such entries were picked first, then a sample of the others. For part of these data: A potency beside an inconclusive call is a rough fit, not a confirmed value. Calls of active or inactive are those of the source. The call rests on the fitted dose curve; in most records, active means well fitted cell-killing curve with a large enough effect; inconclusive means small, poorly fitted or top-dose-only effect, or effect the other way; inactive means no such curve, though single readings can be large or run the other way.

Columns and labels:
[1] = Quantitative High-Throughput drug screen in 47 multiple myeloma cell lines against the NCATS MIPE library collection: KMS28PE_JCRB cell viability assay (AID 1918983); further: nearly all actives have a fitted effect of over 35% in size; further: potency means the concentration at half of the fitted maximal effect
Summary of the method: (§1)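 Myeloma cells (500/well) treated with MIPE 4.0 compounds for 48 h at 37 °C, 5% CO2. Viability read as ATP via CellTiter-Glo luminescence after 5 min at RT; DMSO-only wells = 100%, media-only = 0% viability.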

[2] = Quantitative High-Throughput drug screen in 47 multiple myeloma cell lines against the NCATS MIPE library collection: L363_DSMZ cell viability assay (AID 1918984); settings: L363 myeloma viability, CellTiter-Glo ATP luminescence, 48 h; viability (% of control): at 45.8 µM (top of the series); further: nearly all actives have a fitted effect of over 40% in size; further: potency means the concentration at half of the fitted maximal effect
Summary of the method: as §1

[3] = Quantitative High-Throughput drug screen in 47 multiple myeloma cell lines against the NCATS MIPE library collection: KMS34_JCRB cell viability assay (AID 1918985); further: nearly all actives have a fitted effect of over 40% in size; further: potency means the concentration at half of the fitted maximal effect
Summary of the method: as §1

[4] = Quantitative High-Throughput drug screen in 47 multiple myeloma cell lines against the NCATS MIPE library collection: OCIMY7_PLB cell viability assay (AID 1918987); settings: OCI-MY7 myeloma viability, CellTiter-Glo ATP, 48 h; viability (% of DMSO): at 45.8 µM (top of the series); further: potency means the concentration at half of the fitted maximal effect; nearly all actives have a fitted effect of over 65% in size
Summary of the method: as §1

[5] = Quantitative High-Throughput drug screen in 47 multiple myeloma cell lines against the NCATS MIPE library collection: OCIMY5_PLB cell viability assay (AID 1918988); further: nearly all actives have a fitted effect of over 65% in size; further: potency means the concentration at half of the fitted maximal effect
Summary of the method: as §1

[6] = Quantitative High-Throughput drug screen in 47 multiple myeloma cell lines against the NCATS MIPE library collection: SKMM1_PLB cell viability assay (AID 1919863); settings: SKMM1 myeloma viability, CellTiter-Glo ATP, 48 h; viability: active compounds read low; further: nearly all actives have a fitted effect of over 35% in size; further: potency means the concentration at half of the fitted maximal effect
Summary of the method: as §1

[7] = Quantitative High-Throughput drug screen in 47 multiple myeloma cell lines against the NCATS MIPE library collection: U266_ATCC cell viability assay (AID 1919864); settings: U266 myeloma viability, CellTiter-Glo ATP luminescence, 48 h; viability (% of DMSO control): at 45.8 µM (top of the series); further: nearly all actives have a fitted effect of over 35% in size; further: potency means the concentration at half of the fitted maximal effect
Summary of the method: as §1

[8] = Quantitative High-Throughput drug screen in 47 multiple myeloma cell lines against the NCATS MIPE library collection: UTMC2_PLB cell viability assay (AID 1919868); settings: CellTiter-Glo ATP luminescence, 48 h; viability (% of DMSO control): at 45.8 µM (top of the series); further: potency means the concentration at half of the fitted maximal effect; nearly all actives have a fitted effect of over 55% in size
Summary of the method: as §1

[9] = Quantitative High-Throughput drug screen in 47 multiple myeloma cell lines against the NCATS MIPE library collection: OPM2_DSMZ cell viability assay (AID 1919872); further: nearly all actives have a fitted effect of over 30% in size; further: potency means the concentration at half of the fitted maximal effect
Summary of the method: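 We plated 500 myeloma cells per well, pinned in MIPE 4.0 compounds, and incubated for 48 hours at 37C. ATP was then quantified with CellTiter-Glo, with DMSO and media-only wells defining 100% and 0%.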

[10] = Quantitative High-Throughput drug screen in 47 multiple myeloma cell lines against the NCATS MIPE library collection: VP6_DJ cell viability assay (AID 1919867); settings: ATP luminescence, 48 h; viability (% of DMSO): at 45.8 µM (top of the series); further: nearly all actives have a fitted effect of over 40% in size; further: potency means the concentration at half of the fitted maximal effect
Summary of the method: as §1

[11] = Quantitative High-Throughput drug screen in 47 multiple myeloma cell lines against the NCATS MIPE library collection: RPMI8226_ATCC cell viability assay (AID 1919871); settings: RPMI8226 myeloma viability, CellTiter-Glo ATP luminescence, 48 h; viability (% of control): at 45.8 µM (top of the series); further: nearly all actives have a fitted effect of over 30% in size
Summary of the method: as §1

[12] = Quantitative High-Throughput drug screen in 47 multiple myeloma cell lines against the NCATS MIPE library collection: KMS28BM_JCRB cell viability assay (AID 1919874); further: nearly all actives have a fitted effect of over 35% in size; further: potency means the concentration at half of the fitted maximal effect
Summary of the method: as §1

[13] = Quantitative High-Throughput drug screen in 47 multiple myeloma cell lines against the NCATS MIPE library collection: KMS11_JCRBsus cell viability assay (AID 1919873); further: potency means the concentration at half of the fitted maximal effect; nearly all actives have a fitted effect of over 50% in size
Summary of the method: as §1

[14] = Quantitative High-Throughput drug screen in 47 multiple myeloma cell lines against the NCATS MIPE library collection: OPM1_PLB cell viability assay (AID 1918989); further: potency means the concentration at half of the fitted maximal effect; nearly all actives have a fitted effect of over 40% in size
Summary of the method: as §1

[15] = Quantitative High-Throughput drug screen in 47 multiple myeloma cell lines against the NCATS MIPE library collection: XG6_PLB cell viability assay (AID 1919865); settings: XG6 myeloma viability, CellTiter-Glo ATP luminescence, 48 h; viability (% of control): at 45.8 µM (top of the series); further: nearly all actives have a fitted effect of over 40% in size; further: potency means the concentration at half of the fitted maximal effect
Summary of the method: as §1

[16] = Quantitative High-Throughput drug screen in 47 multiple myeloma cell lines against the NCATS MIPE library collection: XG1_PLB cell viability assay (AID 1919866); settings: CellTiter-Glo ATP, 48 h; viability: at 45.8 µM (top of the series)
Summary of the method: as §1

[17] = Quantitative High-Throughput drug screen in 47 multiple myeloma cell lines against the NCATS MIPE library collection: PE2_PLB cell viability assay (AID 1919869); settings: PE2_PLB myeloma cells viability, ATP luminescence, 48 h; viability (% of control): at 45.8 µM (top of the series)
Summary of the method: as §1

[18] = Quantitative High-Throughput drug screen in 47 multiple myeloma cell lines against the NCATS MIPE library collection: PCM6_Riken cell viability assay (AID 1919870); further: nearly all actives have a fitted effect of over 30% in size; further: potency means the concentration at half of the fitted maximal effect
Summary of the method: as §1

| SMILES | Potency [1] | Potency [2] | Potency [3] | Potency [4] | Potency [5] | Potency [6] | Potency [7] | Potency [8] | Potency [9] | Potency [10] | Potency [11] | Potency [12] | Potency [13] | Potency [14] | Potency [15] | Potency [16] | Potency [17] | Potency [18] | viability [6] |
| --- | --- | --- | --- | --- | --- | --- | --- | --- | --- | --- | --- | --- | --- | --- | --- | --- | --- | --- | --- |
| O=C(O)CNC(=O)c1c(O)c2ccccc2n(Cc2ccccc2)c1=O | inconclusive: 0.166 µM [cytotoxic, full curve, poor fit] | inactive | inactive | inconclusive: 0.935 µM [rising, full curve, poor fit] | inactive | inconclusive: 0.0372 µM [cytotoxic, full curve, poor fit] | inconclusive: 18.7 µM [cytotoxic, single point] | inconclusive: 0.166 µM [rising, full curve, poor fit] | inconclusive: 37.2 µM [cytotoxic, partial curve, poor fit] | – | – | – | – | – | – | – | – | – | – |
| O=S(=O)(F)Cc1ccccc1 | inactive | – | inactive | inconclusive: 26.4 µM [cytotoxic, single point] | inactive | inconclusive: 6.62 µM [rising, full curve] | inconclusive: 0.0148 µM [cytotoxic, full curve, poor fit] | inconclusive: 0.0021 µM [cytotoxic, full curve, poor fit] | inactive | inactive | inactive | inactive | – | – | – | – | – | – | – |
| C[C@@H]1O[C@@H](O[C@H]2C[C@@H](O)[C@]3(CO)[C@H]4[C@H](O)C[C@]5(C)[C@@H](C6=CC(=O)OC6)CC[C@]5(O)[C@@H]4CC[C@]3(O)C2)[C@H](O)[C@H](O)[C@H]1O | active: 0.0209 µM | active: 0.0469 µM | – | – | – | – | active: 0.0209 µM | – | inconclusive: 0.0118 µM [cytotoxic, full curve] | active: 0.0166 µM | – | – | active: 0.0935 µM | – | – | – | – | – | – |
| Cc1cc(SCc2sc(-c3ccc(C(F)(F)F)c(F)c3)nc2C)ccc1OCC(=O)O | inconclusive: 10.5 µM [cytotoxic, partial curve, poor fit] | – | inconclusive: 29.6 µM [cytotoxic, single point] | – | – | inconclusive: 0.0021 µM [cytotoxic, full curve, poor fit] | active: 18.7 µM | inconclusive: 33.2 µM [cytotoxic, partial curve, poor fit] | inactive | – | – | inconclusive: 18.7 µM [cytotoxic, partial curve, poor fit] | inconclusive: 26.4 µM [cytotoxic, single point] | active: 20.9 µM | inconclusive: 16.6 µM [cytotoxic, partial curve, poor fit] | inconclusive: 16.6 µM [cytotoxic, partial curve] | – | – | – |
| O=P1(N(CCCl)CCCl)NCCCO1 (stereo not drawn) | inconclusive: 5.26 µM [cytotoxic, partial curve, poor fit] | – | inconclusive: 0.001 µM | inconclusive: 23.5 µM [cytotoxic, partial curve, poor fit] | inconclusive: 2.64 µM [cytotoxic, full curve, poor fit] | inconclusive: 1.66 µM [cytotoxic, partial curve, poor fit] | inconclusive: 3.72 µM [cytotoxic, partial curve, poor fit] | inconclusive: 0.0012 µM [rising, full curve, poor fit] | – | – | – | inconclusive: 33.2 µM [cytotoxic, single point] | inconclusive: 16.6 µM [cytotoxic, single point] | – | inactive | – | inconclusive: 0.662 µM [cytotoxic, full curve, poor fit] | inconclusive: 20.9 µM [cytotoxic, single point] | – |
| NCC1(CC(=O)O)CCCCC1 | inactive | inconclusive: 6.62 µM [cytotoxic, partial curve, poor fit] | inconclusive: 0.526 µM [rising, full curve, poor fit] | inconclusive: 1.66 µM [rising, full curve, poor fit] | inconclusive: 11.8 µM [rising, single point] | – | inactive | inconclusive: 5.26 µM [rising, partial curve, poor fit] | – | inconclusive: 20.9 µM [cytotoxic, partial curve] | inactive | – | – | – | inconclusive: 26.4 µM [cytotoxic, single point] | inconclusive: 33.2 µM [cytotoxic, single point] | – | – | inactive: 140% |
| c1ccc(CCCN2CCN(CCOC(c3ccccc3)c3ccccc3)CC2)cc1 | inconclusive: 18.7 µM [cytotoxic, partial curve] | – | active: 26.4 µM | inconclusive: 1.32 µM [cytotoxic, full curve, poor fit] | – | – | – | inconclusive: 16.6 µM [cytotoxic, partial curve, poor fit] | – | – | – | – | – | active: 20.9 µM | inconclusive: 29.6 µM [cytotoxic, single point] | – | – | – | – |
| CC[C@@H](C(N)=O)N1CCCC1=O | inconclusive: 6.62 µM [cytotoxic, partial curve, poor fit] | inconclusive: 0.0166 µM [cytotoxic, full curve, poor fit] | inconclusive: 18.7 µM [cytotoxic, partial curve, poor fit] | inconclusive: 0.0662 µM [rising, full curve, poor fit] | inconclusive: 37.2 µM [cytotoxic, single point] | – | inactive | inconclusive: 0.0118 µM [rising, full curve, poor fit] | – | – | – | inactive | – | – | inconclusive: 33.2 µM [cytotoxic, single point] | – | inconclusive: 0.372 µM [cytotoxic, full curve, poor fit] | inactive | – |
